Experimental data: patent US10865191B2, “Heterocyclic compounds useful as modulators of TNF alpha” (BRISTOL-MYERS SQUIBB COMPANY, priority 2015, dated 2020)
Some entries share one result that the patent states for a list of compounds. Each block holds one molecule with its values, some of them ahead of it.

Protein sequences, listed by entry. Tags and fused reporters are not part of them. Residues count along the entry.
UniProt P01375, 77-233 limits assumed: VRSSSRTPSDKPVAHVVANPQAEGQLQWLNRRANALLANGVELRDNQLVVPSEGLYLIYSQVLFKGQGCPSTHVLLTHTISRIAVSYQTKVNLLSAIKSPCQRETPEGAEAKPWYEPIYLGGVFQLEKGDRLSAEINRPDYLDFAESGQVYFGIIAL

Target: TNFα (Homo sapiens, UniProt P01375)
Assay: TNF induced HEK-Blue assay (NF-kB-driven secreted alkaline phosphatase reporter)
Type: cell-based
Details: TNFα 0.5 ng/mL, HEK-Blue-CD40L cells, 18 h; read-out: IC50 values measured in the TNF induced HEK-Blue assay
Method in brief: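 HEK-Blue-CD40L cells (NF-kB-driven SEAP reporter), 20,000/well, added after 30 min pre-incubation of compound (0.004–25 μM final) with TNFα 0.5 ng/mL final at 37 °C; 18 h incubation. SEAP read with QUANTI-Blue at 620 nm; IC50 from 4-parameter logistic fit, normalized to unstimulated and stimulated DMSO controls.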

Compound: Cc1ccc(C)c(Nc2c(Cl)c(N)nc3ccc(-c4cnc(NCC(O)CO)nc4)cc23)c1 (racemic) [Example 73, 3-((5-(2-amino-3-chloro-4-((2,5-dimethylphenyl)amino)quinolin-6-yl)pyrimidin-2-yl)amino)propane-1,2-diol]
IC50: ≤ 25 µM

Compound: C[C@@H](Nc1c(Cl)cnc2ccccc12)c1cc(-c2cncc(C(=O)N3CCOCC3)c2)ccc1F [Example 551, (R)-(5-(3-(1-((3-chloroquinolin-4-yl)amino)ethyl)-4-fluorophenyl)pyridin-3-yl)(morpholino)methanone]
IC50: ≤ 25 µM

Compound: C[C@@H](Nc1c(Cl)cnc2ccc(-c3cnc(N4CCNC(=O)C4)nc3)cc12)c1ccccc1F [Example 226, (R)-4-(5-(3-chloro-4-((1-(2-fluorophenyl)ethyl)amino)quinolin-6-yl)pyrimidin-2-yl)piperazin-2-one]
IC50: ≤ 25 µM

Compound: Cc1nc2ccc(-c3cnc(C(C)(C)O)nc3)cc2c(N[C@H](c2cc(Br)ccc2F)C(F)F)c1Cl [Example 321, (R)-2-(5-(4-((1-(5-bromo-2-fluorophenyl)-2,2-difluoroethyl)amino)-3-chloro-2-methylquinolin-6-yl)pyrimidin-2-yl) propan-2-ol]
IC50: ≤ 25 µM

Compound: CC(C)(O)c1ncc(-c2cc3c(N[C@@H](c4cc(C#N)ccc4F)C(F)F)c(Cl)cnc3cc2F)cn1 [Example 381, (S)-3-(1-((3-chloro-7-fluoro-6-(2-(2-hydroxypropan-2-yl)pyrimidin-5-yl)quinolin-4-yl)amino)-2,2-difluoroethyl)-4-fluorobenzonitrile]
IC50: ≤ 25 µM

Compound: Cc1nc2ccc(-c3cnc(C(C)(C)O)nc3)cc2c(N[C@H](C)c2cc(CC(=O)O)ccc2F)c1Cl [Example 436, (R)-2-(3-(1-((3-chloro-6-(2-(2-hydroxypropan-2-yl)pyrimidin-5-yl)-2-methylquinolin-4-yl)amino)ethyl)-4-fluorophenyl)acetic acid]
IC50: ≤ 25 µM

Compound: C=Cc1ccc(F)c([C@H](Nc2c(Cl)cnc3cc(F)c(-c4cnc(C(C)(C)O)nc4)nc23)C(F)F)c1 [Example 495, (S)-2-(5-(7-chloro-8-((2,2-difluoro-1-(2-fluoro-5-vinylphenyl)ethyl)amino)-3-fluoro-1,5-naphthyridin-2-yl)pyrimidin-2-yl)propan-2-ol]
IC50: ≤ 25 µM

Compound: CNCC(O)c1ccc(-c2cc3c(NC(C)c4ccccc4F)c(Cl)cnc3cc2F)cc1 (single isomer, unassigned) [Example 600, 1-(4-(3-chloro-7-fluoro-4-((1-(2-fluorophenyl)ethyl)amino)quinolin-6-yl)phenyl)-2-(methylamino)ethan-1-ol]
IC50: ≤ 25 µM

Compound: CCc1ncc(-c2ccc3ncc(Cl)c(N[C@H](C)c4ccccc4F)c3c2)cn1 [Example 223, (R)-3-chloro-6-(2-ethylpyrimidin-5-yl)-N-(1-(2-fluorophenyl)ethyl) quinolin-4-amine]
IC50: ≤ 25 µM

Compound: C[C@@H](Nc1c(Cl)cnc2ccccc12)c1cc(-c2cnc(N)nc2)ccc1F [Example 481, (R)—N-(1-(5-(2-aminopyrimidin-5-yl)-2-fluorophenyl)ethyl)-3-chloroquinolin-4-amine]
IC50: ≤ 25 µM

Compound: Cc1nc2cc(F)c(-c3cnc(C(C)(C)O)nc3)cc2c(N[C@H](C)c2cc(CCO)ccc2F)c1Cl [Example 325, (R)-2-(5-(3-chloro-7-fluoro-4-((1-(2-fluoro-5-(2-hydroxyethyl)phenyl)ethyl)amino)-2-methylquinolin-6-yl)pyrimidin-2-yl) propan-2-ol]
IC50: ≤ 25 µM

Compound: C=CC(=O)N1CCN(c2ccc(-c3ccc4ncc(Cl)c(N[C@H](C)c5ccccc5F)c4c3)cn2)CC1 [Example 123, (R)-1-(4-(5-(3-chloro-4-((1-(2-fluorophenyl)ethyl)amino)quinolin-6-yl)pyridin-2-yl)piperazin-1-yl)prop-2-en-1-one]
IC50: ≤ 25 µM

Compound: Cc1nc2ccc(-c3cnc(C(C)(C)O)nc3)cc2c(N[C@H](C)c2cc(C(C)(O)CO)ccc2F)c1Cl (mixture of isomers) [Example 403, 2-(3-((R)-1-((3-chloro-6-(2-(2-hydroxypropan-2-yl)pyrimidin-5-yl)-2-methylquinolin-4-yl)amino)ethyl)-4-fluorophenyl)propane-1,2-diol]
IC50: ≤ 25 µM

Compound: C=Cc1ccc(F)c([C@@H](C)Nc2c(Cl)c(C)nc3ccc(-c4cnc(C(C)(C)O)nc4)cc23)c1 [Example 330, (R)-2-(5-(3-chloro-4-((1-(2-fluoro-5-vinylphenyl)ethyl)amino)-2-methylquinolin-6-yl)pyrimidin-2-yl)propan-2-ol]
IC50: ≤ 25 µM

Compound: C[C@@H](Nc1c(Cl)cnc2ccc(-c3ccc(C(C)(C)O)cc3)cc12)c1cnccn1 [Example 490, (R)-2-(4-(3-chloro-4-((1-(pyrazin-2-yl)ethyl)amino)quinolin-6-yl)phenyl)propan-2-ol]
IC50: ≤ 25 µM

Compound: C[C@H](Nc1c(Cl)cnc2ccc(-c3cnc(C(C)(C)O)nc3)cc12)[C@H]1CCCN(S(C)(=O)=O)C1 [Example 563, 2-(5-(3-chloro-4-(((S)-1-((S)-1-(methylsulfonyl)piperidin-3-yl)ethyl)amino)quinolin-6-yl)pyrimidin-2-yl)propan-2-ol]
IC50: ≤ 25 µM

Compound: CC(Nc1c(Cl)cnc2ccc(-c3cnc(C(C)(C)O)nc3)cc12)[C@H]1CCCN(C(=O)OC(C)(C)C)C1 (mixture of isomers) [Example 60, (S)-tert-butyl 3-(1-((3-chloro-6-(2-(2-hydroxypropan-2-yl)pyrimidin-5-yl)quinolin-4-yl)amino)ethyl)piperidine-1-carboxylate]
IC50: ≤ 25 µM

More lines, now with the values ahead:

IC50: ≤ 25 µM
Compound: CC(Nc1c(Cl)cnc2cc(F)c(-c3ccc(C(C)(C)O)c(F)c3)cc12)c1ccccc1F (stereo not shown) [Example 258, 2-(4-(3-chloro-7-fluoro-4-((1-(2-fluorophenyl)ethyl)amino)quinolin-6-yl)-2-fluorophenyl)propan-2-ol]

IC50: ≤ 25 µM
Compound: CCC(Nc1c(Cl)cnc2ccc(-c3cnc(C(C)(C)O)nc3)cc12)c1ccccn1 (racemic) [Example 52, 2-(5-(3-chloro-4-((1-(pyridin-2-yl)propyl)amino)quinolin-6-yl)pyrimidin-2-yl)propan-2-ol]

IC50: ≤ 25 µM
Compound: CNC(=O)c1nc2ccc(-c3ccc(C#N)nc3)cc2c(Nc2cc(C)ccc2C)c1Cl [Example 33, 3-chloro-6-(6-cyanopyridin-3-yl)-4-((2,5-dimethylphenyl)amino)-N-methylquinoline-2-carboxamide]

IC50: ≤ 25 µM
Compound: Cc1nc2ccc(-c3cnc(C(C)(C)O)nc3)cc2c(-c2ccccc2-c2ccccc2)c1Cl [Example 353, 2-(5-(4-([1,1′-biphenyl]-2-yl)-3-chloro-2-methylquinolin-6-yl)pyrimidin-2-yl)propan-2-ol]

IC50: ≤ 25 µM
Compound: C[C@@H](Nc1c(Cl)cnc2ccc(-c3ccc(C(N)CC(=O)O)cc3)cc12)c1ccccc1F (mixture of isomers) [Example 115, 3-amino-3-(4-(3-chloro-4-(((R)-1-(2-fluorophenyl)ethyl)amino)quinolin-6-yl)phenyl)propanoic acid]

IC50: ≤ 25 µM
Compound: Cc1nc2c(F)cc(-c3cnc(C(C)(C)O)nc3)cc2c(N[C@H](C)c2cc(C(N)=O)ccc2F)c1Cl [Example 303, (R)-3-(1-((3-chloro-8-fluoro-6-(2-(2-hydroxypropan-2-yl)pyrimidin-5-yl)-2-methylquinolin-4-yl)amino)ethyl)-4-fluorobenzamide]

IC50: ≤ 25 µM
Compound: CC(Nc1c(Cl)cnc2ccc(-c3ccc(C(C)(C)O)cc3)cc12)c1cccnc1 (racemic) [Example 166, 2-(4-(3-chloro-4-((1-(pyridin-3-yl)ethyl)amino)quinolin-6-yl)phenyl)propan-2-ol]

IC50: ≤ 25 µM
Compound: CC(C)C(Nc1c(Cl)cnc2ccc(-c3cnc(C(C)(C)O)nc3)cc12)c1ccccn1 (racemic) [Example 51, 2-(5-(3-chloro-4-((2-methyl-1-(pyridin-2-yl)propyl)amino)quinolin-6-yl)pyrimidin-2-yl)propan-2-ol]

IC50: ≤ 25 µM
Compound: C[C@@H](Nc1c(Cl)cnc2ccc(-c3cnc(C(C)(C)O)nc3)cc12)c1cc(-c2cncs2)ccc1F [Example 347, (R)-2-(5-(3-chloro-4-((1-(2-fluoro-5-(thiazol-5-yl)phenyl)ethyl)amino)quinolin-6-yl)pyrimidin-2-yl)propan-2-ol]

IC50: ≤ 25 µM
Compound: C=Cc1ccc(F)c([C@@H](Nc2c(Cl)cnc3cc(F)c(-c4cnc(C(C)(C)O)nc4)nc23)C(F)F)c1 [Example 215, (R)-2-(5-(7-chloro-8-((2,2-difluoro-1-(2-fluoro-5-vinylphenyl)ethyl)amino)-3-fluoro-1,5-naphthyridin-2-yl)pyrimidin-2-yl)propan-2-ol]

IC50: ≤ 25 µM
Compound: CC(Nc1c(Cl)cnc2cc(F)c(-c3cnc(C(O)CN4CCC(C(=O)O)CC4)nc3)cc12)c1ccccc1F (single isomer, unassigned) [Example 610, 1-(2-(5-(3-chloro-7-fluoro-4-((1-(2-fluorophenyl)ethyl)amino)quinolin-6-yl)pyrimidin-2-yl)-2-hydroxyethyl) piperidine-4-carboxylic acid]

IC50: ≤ 25 µM
Compound: CC(Cc1ccc(OC(F)(F)F)cc1)Nc1c(Cl)cnc2ccc(-c3cnc(C(C)(C)O)nc3)cc12 (racemic) [Example 137, 2-(5-(3-chloro-4-((1-(4-(trifluoromethoxy)phenyl)propan-2-yl)amino)quinolin-6-yl)pyrimidin-2-yl)propan-2-ol]

IC50: ≤ 25 µM
Compound: CC(C)(O)c1ncc(-c2ccc3ncc(Cl)c(NCc4ccc(C(F)(F)F)cc4)c3c2)cn1 [Example 145, 2-(5-(3-chloro-4-(4-(trifluoromethyl)benzylamino)quinolin-6-yl)pyrimidin-2-yl)propan-2-ol]

IC50: ≤ 25 µM
Compound: C[C@@H](Nc1c(Cl)cnc2ccc(-c3cnc(C(C)(C)O)nc3)cc12)c1cc(N2CCOCC2=O)ccc1F [Example 369, (R)-4-(3-(1-((3-chloro-6-(2-(2-hydroxypropan-2-yl)pyrimidin-5-yl)quinolin-4-yl)amino)ethyl)-4-fluorophenyl) morpholin-3-one]
